Results taken from article doi:10.1101/2024.01.11.574638.
Results are given in words; binding and its absence hold for the method and conditions named. In cells and extracts the contact can be indirect. Some entries that bind do so weakly or less than the wild type. For some assays here: Tags and fused reporters may be left off the sequences shown.

Amino acid sequences for entries named in this document (tags omitted).
UniProt Q8N895: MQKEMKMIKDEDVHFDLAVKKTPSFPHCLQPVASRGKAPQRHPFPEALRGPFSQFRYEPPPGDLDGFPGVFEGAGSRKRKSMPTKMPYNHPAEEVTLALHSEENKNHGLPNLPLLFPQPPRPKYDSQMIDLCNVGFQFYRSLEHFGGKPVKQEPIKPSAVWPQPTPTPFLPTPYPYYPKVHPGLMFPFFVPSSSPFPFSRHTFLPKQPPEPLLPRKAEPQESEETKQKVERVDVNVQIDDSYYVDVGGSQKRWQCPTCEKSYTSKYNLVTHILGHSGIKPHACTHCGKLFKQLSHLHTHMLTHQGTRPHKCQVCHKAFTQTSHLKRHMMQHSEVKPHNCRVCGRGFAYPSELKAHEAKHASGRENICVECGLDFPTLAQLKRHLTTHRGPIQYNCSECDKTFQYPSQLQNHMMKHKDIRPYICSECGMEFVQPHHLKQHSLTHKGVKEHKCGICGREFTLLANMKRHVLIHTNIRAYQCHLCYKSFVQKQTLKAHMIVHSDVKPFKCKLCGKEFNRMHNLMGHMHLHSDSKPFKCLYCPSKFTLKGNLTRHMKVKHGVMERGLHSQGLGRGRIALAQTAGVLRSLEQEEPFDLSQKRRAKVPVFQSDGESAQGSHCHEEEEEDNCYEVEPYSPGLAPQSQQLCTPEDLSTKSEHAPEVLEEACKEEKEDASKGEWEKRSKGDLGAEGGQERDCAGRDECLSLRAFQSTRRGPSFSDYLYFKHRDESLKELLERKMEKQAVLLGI

Legend:
[1] = molecular target: T1, murine DC-SCRIPT (ZFP366), Myc-DDK tagged (mouse) (UniProt Q6NS86); experiment: co-IP
T1 sequence: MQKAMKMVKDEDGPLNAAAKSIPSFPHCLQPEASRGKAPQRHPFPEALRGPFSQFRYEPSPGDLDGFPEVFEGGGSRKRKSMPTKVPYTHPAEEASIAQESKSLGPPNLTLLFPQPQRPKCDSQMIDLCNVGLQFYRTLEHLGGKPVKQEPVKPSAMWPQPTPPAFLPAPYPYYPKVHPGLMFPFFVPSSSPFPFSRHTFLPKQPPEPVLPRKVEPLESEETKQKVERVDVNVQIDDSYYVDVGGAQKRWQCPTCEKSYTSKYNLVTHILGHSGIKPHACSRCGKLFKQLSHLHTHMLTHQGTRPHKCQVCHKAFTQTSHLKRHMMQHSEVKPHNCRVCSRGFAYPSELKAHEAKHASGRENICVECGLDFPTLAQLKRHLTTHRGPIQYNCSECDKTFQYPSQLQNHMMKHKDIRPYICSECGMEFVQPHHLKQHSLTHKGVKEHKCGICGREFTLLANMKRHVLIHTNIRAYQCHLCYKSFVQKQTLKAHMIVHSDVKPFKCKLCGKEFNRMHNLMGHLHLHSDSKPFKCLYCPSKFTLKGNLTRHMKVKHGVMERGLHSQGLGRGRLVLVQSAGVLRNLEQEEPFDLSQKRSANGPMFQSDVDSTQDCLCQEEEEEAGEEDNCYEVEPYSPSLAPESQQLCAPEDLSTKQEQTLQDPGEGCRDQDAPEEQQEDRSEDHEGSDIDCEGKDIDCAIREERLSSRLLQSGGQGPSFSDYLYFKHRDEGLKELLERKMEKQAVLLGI

human DC-SCRIPT (human) = human DC-SCRIPT (human) (UniProt Q8N895); experiment: co-IP

| Binder | binding [1] | binding (human DC-SCRIPT (human)) |
| --- | --- | --- |
| murine IRF7 (isoform a) (protein, UniProt P70434 1-457) MAEVRGVQRVLFGDWLLGEVSSGQYEGLQWLNEARTVFRVPWKHFGRRDLDEEDAQIFKAWAVARGRWPPSGVNLPPPEAEAAERRERRGWKTNFRCALHSTGRFILRQDNSGDPVDPHKVYELSRELGSTVGPATENREEVSLSNALPTQGVSPGSFLARENAGLQTPSPLLSSDAGDLLLQVLQYSHILESESGADPVPPQAPGQEQDRVYEEPYAAWQVEAVPSPRPQQPALTERSLGFLDVTIMYKGRTVLQAVVGHPRCVFLYSPMAPAVRTSEPQPVIFPSPAELPDQKQLHYTETLLQHVSPGLQLELRGPSLWALRMGKCKVYWEVGSPMGTTGPSTPPQLLERNRHTPIFDFSTFFRELEEFRARRRQGSPHYTIYLGFGQDLSAGRPKEKTLILVKLEPWVCKAYLEGVQREGVSSLDSSSLGLCLSSTNSLYEDIEHFLMDLGQWP | binds |  |
| human IRF7 (isoform a) (protein, UniProt Q92985 1-503) MALAPERAAPRVLFGEWLLGEISSGCYEGLQWLDEARTCFRVPWKHFARKDLSEADARIFKAWAVARGRWPPSSRGGGPPPEAETAERAGWKTNFRCALRSTRRFVMLRDNSGDPADPHKVYALSRELCWREGPGTDQTEAEAPAAVPPPQGGPPGPFLAHTHAGLQAPGPLPAPAGDKGDLLLQAVQQSCLADHLLTASWGADPVPTKAPGEGQEGLPLTGACAGGPGLPAGELYGWAVETTPSPGPQPAALTTGEAAAPESPHQAEPYLSPSPSACTAVQEPSPGALDVTIMYKGRTVLQKVVGHPSCTFLYGPPDPAVRATDPQQVAFPSPAELPDQKQLRYTEELLRHVAPGLHLELRGPQLWARRMGKCKVYWEVGGPPGSASPSTPACLLPRNCDTPIFDFRVFFQELVEFRARQRRGSPRYTIYLGFGQDLSAGRPKEKSLVLVKLEPWLCRVHLEGTQREGVSSLDSSSLSLCLSSANSLYDDIECFLMELEQPA |  | binds |
